Source: PubChem BioAssay AID588497 (NMMLSC, 2011)
Screen size: about 360,000 compounds; about 780 (0.22%) were called active. This list was built around the results that the source calls inconclusive (neither active nor inactive); the mix of calls is not that of the screen. Rule as the data show it: active = inhibition above about 35% (passing the limit was not always enough); inconclusive = no clear call, values can overlap the other calls.

System: Botulinum neurotoxin type F light chain protease (Clostridium botulinum)
Assay: BoNT/F light chain protease inhibitors, primary screen, biochemical, flow cytometry, MLPCN library (AID 588497); also: plate controls were buffer without enzyme for full effect and enzyme alone for no effect
Conditions: Multiplex microsphere protease cleavage assay, at 10 µM, hits give high values

| SMILES | inhibition |
| --- | --- |
| NC(=O)C1C2CCC(C2)C1C(N)=O (stereo not drawn) | inactive: 1.9% |
| Cc1ccc(C(=O)NCCCn2ccnc2)cc1C | inconclusive: 55.2% |
| CCOC(=O)c1cnc2c(Cl)cccc2c1NCCCN1CCOCC1 | inconclusive: -3.7% |
| CNc1c(NS(=O)(=O)c2cc(Cl)ccc2OC)c(=O)oc2ccccc12 | inactive: 7.7% |
| C/C(=C\c1ccccc1)C(=O)Nc1cc(C)on1 | inconclusive: -37.7% |
| CCC(=O)N1CCCC(C)(C(=O)Nc2ccc(OC(F)F)cc2)C1 (stereo not drawn) | inactive: 10.5% |
| Cc1cc(C(=O)CSc2nnc(-c3cccs3)n2Cc2ccccc2)c(C)n1C | inconclusive: -3.3% |
| Cc1ccc(/C=N/NC(=O)C[n+]2ccccc2)s1 | inconclusive: -4% |
| COc1ccc2oc(=N)c(C(=O)Nc3ccc(Br)cc3)cc2c1 | inconclusive: 20% |
| COC(=O)c1nnn(-c2cc(Cl)cc(Cl)c2)c1C(=O)OC | inconclusive: -8.4% |
| CN(/N=C/c1ccccc1Cl)c1ncc(Cl)cc1C(F)(F)F | inconclusive: 21.7% |
| C[C@]12c3[nH]c4cc(-c5ccco5)ccc4c3CCN1C(=O)[C@@H](CC(=O)NCCN1CCOCC1)C[C@@H]2C(=O)N1CCCCC1 | inactive: -1.4% |
| C[C@@H]1CN([C@H](C)CO)C(=O)c2cc(C#CC3CCCCC3)cnc2O[C@H]1CN(C)Cc1cccnc1 | inactive: -4.4% |
| CS(=O)(=O)N(CC(=O)N1CCCCCC1)Cc1ccc(Cl)cc1 | inactive: 4.4% |
| Cn1cc(-c2cccc(Cl)c2)cc(C#N)c1=O | inactive: -1.3% |
| Cc1cc(O)c(C(C)C)cc1C1(c2cc(C(C)C)c(O)cc2C)OC(=O)c2ccccc21 | inconclusive: -18.1% |
| COCCNc1ccc(-c2nn(C)c(=O)c3ccccc23)cc1[N+](=O)[O-] | inconclusive: -23.2% |
| Cc1cccc(S(=O)(=O)NC(=O)C2(C)CCN2C(=O)Cc2ccc(Cl)cc2Cl)c1 (stereo not drawn) | inactive: 0.9% |
| COc1ccc(-n2c(O)c(/C(C)=N/Nc3ccccc3)c(=O)[nH]c2=O)cc1 | inconclusive: -49.4% |
| COCC(=O)Nc1ccccc1C(=O)Nc1ccc(OC)cc1 | inactive: 2.4% |
| Cc1ccc(SCCNC(=O)c2ccc([N+](=O)[O-])c(C)c2)cc1 | inactive: -14.8% |
| O=C(Nc1ccccc1Cl)c1cc(=O)c2ccccc2o1 | inconclusive: -11.6% |
| Cc1ccc(-c2nc3cc(Br)cnc3nc2-c2ccc(C)cc2)cc1 | inactive: 7.4% |
| CC(=O)c1cnn(-c2c(Cl)cc(Cl)cc2Cl)c1C | active: 38.3% |

| SMILES | inhibition |
| --- | --- |
| CCN(Cc1cnn(C)c1)C(=O)c1ccc2nc(Cc3ccccc3F)oc2c1 | inactive: 0.9% |
| CC1CC(C)CN(S(=O)(=O)c2ccc(C(=O)NCCCn3ccnc3)cc2)C1 (stereo not drawn) | inconclusive: 1% |
| CC1=C(C(=O)OCCCCCl)C(c2cc3c(cc2Br)OCO3)NC(=O)N1 (stereo not drawn) | inconclusive: 21.4% |
| Cc1ccc2c(CC(=O)N3CCN(c4ccccc4)CC3)coc2c1 | inactive: -3.5% |
| CCN(C(=O)COC(=O)/C=C/c1ccc(C)o1)c1c(N)n(Cc2ccccc2)c(=O)[nH]c1=O | inactive: 2.2% |
| C[N+](C)(C)CC/C=C1/c2ccccc2CSc2ccccc21 | inconclusive: -14.2% |
| CC(=O)c1nn(-c2ccc(C)cc2)cc1C(=O)c1cccc(Br)c1 | inconclusive: -37.2% |
| COc1ccc(CNC(=O)c2cc(-c3ccco3)on2)cc1 | inactive: 2.9% |
| O=C(CCn1c(=O)c2cccn2c2cccnc21)N1CCN(c2cccc(Cl)c2)CC1 | inactive: 7.2% |
| CC1(C)CC(=O)C(CC2CCCCC2=O)C(=O)C1 (stereo not drawn) | inconclusive: 12.3% |
| O=c1cnnc(SCCc2ccccc2)[nH]1 | inactive: 3.1% |
| CC1(C(=O)Nc2nc3ccccc3s2)CC1(Br)Br (stereo not drawn) | inactive: 8.7% |
| O=Cc1ccc(-n2cccn2)cc1 | inactive: -3.8% |
| CC(=O)Nc1ccccc1OC(=O)N(C)C | inactive: 3.5% |
| COc1ccc(C2C(C#N)=C(N)Oc3cc(O)ccc32)cc1C (stereo not drawn) | inconclusive: 1.5% |
| Cc1ccc(-c2noc(CCC(=O)N3CCCC3)n2)cc1 | inconclusive: -6.4% |
| COc1ccc(CN(C)C(=O)c2cccc(NS(=O)(=O)c3ccccc3)c2)c(OC)c1 | inactive: -16.6% |
| CN(CC(=O)Nc1ccc(N2CCOCC2)cc1)C(=O)CCNC(=O)c1ccc(Br)cc1 | inactive: 3% |
| Cc1nccc(-c2sc(-c3cccs3)nc2C)n1 | inconclusive: -17.3% |
| S=c1nccc(-c2ccc3c(c2)CCO3)[nH]1 | inconclusive: -159% |
| O=C(NCc1ccccc1)N1CCC(Cc2ccccc2)CC1 | inconclusive: 46.1% |
| Cc1ccc([N+](=O)[O-])c(OCCN2CCc3ccccc3C2)c1 | inconclusive: -5.1% |
| CCOC(=O)c1cc(-c2csc(COc3ccc(Cl)cc3)n2)on1 | inconclusive: 39.8% |
| N#C/C(=C\c1ccc(F)c(Cl)c1)S(=O)(=O)c1ccccn1 | inconclusive: 7.5% |

Some of the entries so far, with tabs:
SMILES	inhibition
CCN(Cc1cnn(C)c1)C(=O)c1ccc2nc(Cc3ccccc3F)oc2c1	inactive: 0.9%
CC1CC(C)CN(S(=O)(=O)c2ccc(C(=O)NCCCn3ccnc3)cc2)C1 (stereo not drawn)	inconclusive: 1%
CC1=C(C(=O)OCCCCCl)C(c2cc3c(cc2Br)OCO3)NC(=O)N1 (stereo not drawn)	inconclusive: 21.4%
C[N+](C)(C)CC/C=C1/c2ccccc2CSc2ccccc21	inconclusive: -14.2%
O=c1cnnc(SCCc2ccccc2)[nH]1	inactive: 3.1%
O=C(NCc1ccccc1)N1CCC(Cc2ccccc2)CC1	inconclusive: 46.1%

More compounds follow.

| SMILES | inhibition |
| --- | --- |
| COC(=O)Cc1ccc(OC(=O)CCS(=O)(=O)c2ccc(C)cc2)cc1 | inactive: 1.3% |
| CN(C)C(=O)c1ccc(NC(=O)c2cncc(Br)c2)cc1 | inactive: 7.2% |
| CC(C)(C)c1csc(NC(=O)c2cccnc2Cl)n1 | inconclusive: -37.6% |
| O=C1CCc2cc(S(=O)(=O)NC(Cc3ccccc3)C(=O)N3CCN(c4ccccn4)CC3)ccc2N1 (stereo not drawn) | inactive: 5.1% |
| O=C(Nc1nnc(-c2ccc(F)cc2)s1)c1ccco1 | inactive: -4.7% |
| Cc1cc(Cl)ccc1NC(=O)C1COc2ccccc2O1 (stereo not drawn) | inconclusive: 0.6% |
| O=C(CCNC(=O)c1ccc([N+](=O)[O-])cc1)Nc1cc(C(F)(F)F)ccc1N1CCOCC1 | inactive: 0.5% |
| O=c1[nH]c(=S)n(-c2ccc(Cl)cc2)c(O)c1/C=N/N1CCOCC1 | inconclusive: 42.3% |
| Cn1c(=O)c2c(nc(N/N=C/c3cccs3)n2C)n(C)c1=O | inconclusive: 6.3% |
| Cc1cc(/C=N/NC(=O)c2cccs2)c(C)n1-c1cnccn1 | active: 47.3% |
| COc1ccc(CCNC(=O)c2ccc([N+](=O)[O-])cc2Cl)cc1OC | inconclusive: -29.4% |
| Nc1ccccc1SC1CC(=O)N(c2ccccc2Cl)C1=O (stereo not drawn) | inconclusive: -8.6% |
| Cc1ccc(F)cc1NC(=O)N1CCN(C2c3ccccc3-c3ccccc32)CC1 | inconclusive: 152% |
| COc1ccc(NS(=O)(=O)c2cccc(C(=O)Nc3cccc(C(=O)O)c3)c2)cc1 | inconclusive: -22.7% |
| O=c1[nH]c(CN2CCCCC2)nc2ccccc12 | inactive: -2.4% |
| COC(=O)c1c(C)nc(C)c(C(=O)OC)c1-c1ccc(OC)cc1 | inconclusive: -45.2% |
| Cc1c(CCC(=O)N2CCC[C@H]2C(=O)O)c(=O)oc2c(C)c3oc4c(c3cc12)CCCC4 | inactive: -9.7% |
| COC(=O)c1ccc(OC)c(-c2c(OC)cc(OC)cc2OC)c1 | inactive: -2.5% |
| COc1ccccc1C(=O)Nc1ccccc1C(=O)Nc1ccccc1 | inconclusive: -47.5% |
| CN(C)/C=C/c1onc(-c2ccccc2Cl)c1C#N | inactive: -5.1% |
| O=C(O)C1(c2ccccc2)CCN(S(=O)(=O)c2ccc(Cl)cc2)CC1 | inconclusive: 25% |
| COc1ccc(C)cc1N(CC(=O)N1CCOCC1)S(C)(=O)=O | active: 35.7% |
| Cc1cccc(C(=O)Nc2ccccc2C(=O)NCc2ccco2)c1 | inactive: -21% |
| CC(C)NC(=O)c1ccc(N(Cc2ccc(Cl)cc2)S(C)(=O)=O)cc1 | inconclusive: -20.7% |

| SMILES | inhibition |
| --- | --- |
| CC(NC(=O)c1c(O)c2ccccc2n(C)c1=O)c1ccccc1 (stereo not drawn) | inconclusive: -53.5% |
| CCOc1cc(N2CCOCC2)c(OCC)cc1NC(=O)CSc1ncccc1C(=O)O | inactive: -4.3% |
| O=C1c2cc(O)c(O)cc2S(=O)(=O)C1c1ccccc1 (stereo not drawn) | inactive: 9.1% |
| O=P(O)(Cc1ccccc1)Cc1ccccc1 | inconclusive: 12.2% |
| COc1ccc(NC(=O)CN(C)C(=O)c2ccc(N3CCCCCC3)c([N+](=O)[O-])c2)cc1 | inconclusive: -3.6% |
| O=c1nc(-c2ccccc2Cl)c2cc(F)ccc2[nH]1 | active: 50.7% |
| CNC(=O)c1c(NC(=O)c2cccc(C)c2)sc2c1CCC2 | inconclusive: -36.7% |
| Cc1nnc(SCC(=O)N2CCN(S(=O)(=O)c3ccc(Cl)cc3)CC2)[nH]c1=O | inactive: 6.8% |
| Cc1ccccc1C(=O)NCCOc1ccccc1Cl | inconclusive: -84.1% |
| COc1cccc(C(=O)C2CCCN(Cc3ccccn3)C2)c1 (stereo not drawn) | inactive: -12.7% |
| Cc1nc2ccccc2c(=O)n1-c1cccc([N+](=O)[O-])c1 | inconclusive: -31.8% |
| Cc1ccc2nc(SCc3ccc([N+](=O)[O-])cc3)[nH]c2c1 | inactive: -0.4% |
| Nc1ccccc1SC1CC(=O)N(c2ccc(Cl)c(Cl)c2)C1=O (stereo not drawn) | inconclusive: -7.1% |
| Cc1ccc(/C=C2\C(=O)NC(=S)N(c3ccc(F)cc3)C2=O)o1 | inconclusive: 5.6% |
| CSc1cccc(NC(N)=O)c1 | inconclusive: 0.2% |
| Cc1cc(-c2ccccc2)nc2c(Br)c(C(=O)O)nn12 | inconclusive: -56.3% |
| CC(C)(C)C(=O)Nc1ccc(-c2cnco2)cc1 | inconclusive: 154% |
| COc1ccc(CCNC(=O)C2CCN(Cc3nc(-c4ccc(Cl)cc4)oc3C)CC2)cc1OC | inactive: -1.7% |
| Nc1ccc(-c2nnn(CC(=O)N3CCCCC3)n2)cc1 | inconclusive: 31.5% |
| Cc1cc(Cl)ccc1-n1c(-c2cccnc2)n[nH]c1=S | inconclusive: -36.5% |
| CC(NC(=O)CN1CCc2ccccc21)c1ccccc1 (stereo not drawn) | inconclusive: -7.3% |
